Drug screen on melanoma cell lines: cell count

Data from the primary screen of doi:10.1371/journal.pone.0140310, rounded.

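The test systems are human melanoma cell lines, treated with two drugs together for 72 h and then stained and imaged. Values are the number of DAPI-stained nuclei as a percentage of the DMSO control: 100 is no effect, lower means fewer cells. Concentrations were fixed for each drug; these are the higher of two levels. The file gives one value for each pair and line, without errors, so small differences may be noise.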 An unselected part of the screen is shown.

Drugs:
NVP-BEZ235, 20 nM: Cn1c(=O)n(-c2ccc(C(C)(C)C#N)cc2)c2c3cc(-c4cnc5ccccc5c4)ccc3ncc21
SU6656, 2000 nM: CN(C)S(=O)(=O)c1ccc2c(c1)/C(=C/c1cc3c([nH]1)CCCC3)C(=O)N2
nilotinib, 1000 nM: Cc1cn(-c2cc(NC(=O)c3ccc(C)c(Nc4nccc(-c5cccnc5)n4)c3)cc(C(F)(F)F)c2)cn1
PLX4720, 400 nM: CCCS(=O)(=O)Nc1ccc(F)c(C(=O)c2c[nH]c3ncc(Cl)cc23)c1F
nilutamide, 5000 nM: CC1(C)NC(=O)N(c2ccc([N+](=O)[O-])c(C(F)(F)F)c2)C1=O
vincristine, 0.5 nM: CC[C@]1(O)C[C@H]2CN(CCc3c([nH]c4ccccc34)[C@@](C(=O)OC)(c3cc4c(cc3OC)N(C=O)[C@H]3[C@@](O)(C(=O)OC)[C@H](OC(C)=O)[C@]5(CC)C=CCN6CC[C@]43[C@@H]65)C2)C1
PF-562271, 400 nM: CN(c1ncccc1CNc1nc(Nc2ccc3c(c2)CC(=O)N3)ncc1C(F)(F)F)S(C)(=O)=O
dasatinib, 20 nM: Cc1nc(Nc2ncc(C(=O)Nc3c(C)cccc3Cl)s2)cc(N2CCN(CCO)CC2)n1
erlotinib, 4000 nM: C#Cc1cccc(Nc2ncnc3cc(OCCOC)c(OCCOC)cc23)c1
T0901317, 7000 nM: O=S(=O)(c1ccccc1)N(CC(F)(F)F)c1ccc(C(O)(C(F)(F)F)C(F)(F)F)cc1
decitabine, 500 nM: Nc1ncn([C@H]2C[C@H](O)[C@@H](CO)O2)c(=O)n1
tozasertib, 30 nM: Cc1cc(Nc2cc(N3CCN(C)CC3)nc(Sc3ccc(NC(=O)C4CC4)cc3)n2)n[nH]1
nutlin-3, 500 nM: COc1ccc(C2=N[C@@H](c3ccc(Cl)cc3)[C@@H](c3ccc(Cl)cc3)N2C(=O)N2CCNC(=O)C2)c(OC(C)C)c1

Drugs | WM3619 | WM451Lu
decitabine + PF-562271 | 84.5 | 50.8
vincristine + erlotinib | 66.6 | 22.6
NVP-BEZ235 + tozasertib | 64.3 | 79.8
vincristine + T0901317 | 60.4 | 36.8
nutlin-3 + nilutamide | 73.5 | 110
SU6656 + decitabine | 81.7 | 60.6
tozasertib + decitabine | 79.7 | 59.7
SU6656 + nilutamide | 98.4 | 84.4
tozasertib + erlotinib | 84.8 | 104
nilutamide + decitabine | 138 | 74.1
nilutamide + PLX4720 | 78.5 | 69.2
PF-562271 + nilotinib | 80.9 | 76.0
nilotinib + PLX4720 | 80.7 | 97.1
decitabine + erlotinib | 73.8 | 69.7
dasatinib + tozasertib | 59.5 | 56.2
nutlin-3 + vincristine | 64.1 | 40.0
decitabine + PLX4720 | 60.1 | 72.7
PF-562271 + tozasertib | 65.6 | 75.8
T0901317 + tozasertib | 57.3 | 93.5
PLX4720 + vincristine | 61.5 | 36.2
erlotinib + SU6656 | 59.9 | 56.7
nilotinib + tozasertib | 80.5 | 86.9
PF-562271 + PLX4720 | 86.7 | 66.1

Repeated from the top, 2 entries:

Drugs	WM3619	WM451Lu
decitabine + PF-562271	84.5	50.8
vincristine + erlotinib	66.6	22.6